Assay results from PubChem BioAssay AID504834 (National Center for Advancing Translational Sciences (NCATS), 2011).
Hit rate of the full screen: of about 320,000 compounds, about 22,000 (6.9%) were called active. Inconclusive results, whose numbers are uncertain, are shown with a selection of clear calls. Calls follow the shape of the dose curve; as a rule, active = well fitted inhibition curve with a large enough effect; inconclusive = small, poorly fitted or top-dose-only effect, or another doubt; inactive = no such curve, though single readings can be large or run the other way. Where the call is inconclusive, the potency comes from a doubtful curve fit.

Experiment: Primary qHTS for delayed death inhibitors of the malarial parasite plastid, 96 hour incubation
Settings: P. falciparum luciferase reporter growth; series mostly up to 28.7 µM; activity change, negative = inhibition: at the top concentration
Summary of the method: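 Parasite growth measured via integrated firefly luciferase reporter in P. falciparum. Infected erythrocytes at 2% hematocrit, 0.05% parasitemia final were treated 96 hours at 37 C under 5% CO2, and luminescence was read.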
% is scaled to controls: 0 for no effect and ±100 for the full control effect; potency is read from the fitted curve at half-maximal effect.

| Compound | activity change, negative = inhibition | Potency |
| --- | --- | --- |
| Cc1ccc(SCCC(=O)OC(C)C(=O)Nc2ccccc2)cc1 (stereo not given) | inactive: 19.7% |  |
| O=C(CC1NCCc2ccccc21)Nc1ccc(Oc2ccccc2)cc1 (stereo not given) |  | inconclusive: 4.65 µM [inhibitor, partial curve, poor fit] |
| COc1ccc(NC(=O)c2cc([N+](=O)[O-])ccc2NC(=O)CNC2CCCCC2C)c(OC)c1 (stereo not given) | inactive: 34.8% |  |
| CCC1(c2ccc(F)cc2)NC(=O)N(CC(=O)N2c3ccccc3CC2C)C1=O (stereo not given) |  | inconclusive: 13.1 µM [inhibitor, single point] |
| O=C(CSc1nnnn1-c1ccc2c(c1)OCCO2)Nc1nc2c(s1)CCCC2 |  | inconclusive: 18.5 µM [inhibitor, partial curve, poor fit] |
| CC1CCc2c(c3ccccc3n2C(=O)CCl)C1 (stereo not given) | inactive: -28.3% |  |
| O=C1N/C(=C\c2ccc(O)cc2)C(=O)c2ccccc21 | inactive: 36.5% |  |
| Cc1nc(S/C(=C\c2ccc(-c3ccc(C(=O)O)c(Cl)c3)o2)C(=O)O)n[nH]1 | inactive: 51.9% |  |
| O=C(O)C1C2CCC(O2)C1C(=O)Nc1ccc(OC(F)F)cc1 (stereo not given) |  | inconclusive: 18.5 µM [inhibitor, single point] |
| Cc1cc(NC(=O)CSc2nc(=O)n3cccc(C)c3n2)no1 |  | inconclusive: 0.37 µM [inhibitor, partial curve, poor fit] |
| CCN(CC)c1ccc(N)cc1 |  | inconclusive: 5.86 µM [inhibitor, single point] |
| COc1cc(O)cc2cc3c(c(O)c12)C(=O)CC(C)(O)O3 (stereo not given) | inactive: 40.9% |  |
| Cc1ccc(SC[C@H](C)CN2CC[C@H](NC(=O)OCc3ccccc3)CCC2=O)cc1 |  | inconclusive: 10.4 µM [inhibitor, single point] |
| CCCCCCC(C)OC(=O)c1ccccc1C(=O)O (stereo not given) | inactive: 38.9% |  |
| CC1(C)OC2OC(COC(=O)c3ccccc3)C3OC(C)(C)OC3C2O1 (stereo not given) |  | inconclusive: 13.1 µM [inhibitor, single point] |
| CCOC(=O)Cc1csc(NC(=O)NC2(C(F)(F)F)Oc3ccccc3O2)n1 |  | inconclusive: 18.5 µM [inhibitor, single point] |
| COCCN(C(=O)c1csnn1)C(C(=O)NC1CCCC1)c1ccccc1F (stereo not given) | inactive: 8.36% |  |
| O=C(Nc1ccccc1)NC1(C(=O)NCc2ccc3c(c2)OCO3)CCCCC1 |  | inconclusive: 0.0522 µM [inhibitor, full curve, poor fit] |
| CN(C)c1cccc2c(/C=N/O)ccc(N(C)C)c12 | inactive: -9.78% |  |
| COc1ccc(C)cc1NC(=O)n1ncc2cc(Cl)ccc21 |  | active: 3.29 µM |
| CCN(CC)S(=O)(=O)c1ccc(N2CCCC2)c(NC(=O)Cc2ccc(OC)cc2)c1 |  | inconclusive: 18.5 µM [inhibitor, single point] |
| Cc1cc(NC(=O)CN2CCC(n3nnc4cc(C(F)(F)F)ccc43)CC2)no1 |  | inconclusive: 0.522 µM [inhibitor, full curve, poor fit] |
| Cc1ccccc1NC(=S)NCc1ccc2c(c1)OCO2 |  | inconclusive: 10.4 µM [inhibitor, partial curve, poor fit] |

| Compound | activity change, negative = inhibition | Potency |
| --- | --- | --- |
| Cc1ccc(NC(=O)C2COc3ccccc3O2)cc1S(=O)(=O)N1CCCCC1 (stereo not given) |  | inconclusive: 18.5 µM [inhibitor, single point] |
| COC(=O)[C@H](Cc1ccccc1)NC(=O)NCCc1ccccc1F | inactive: 6.61% |  |
| Cc1ccc(CCNC(=O)C23CN(Cc4ccccc4)CC2C(c2ccc([N+](=O)[O-])cc2)=NO3)cc1 (stereo not given) |  | inconclusive: 5.86 µM [inhibitor, partial curve, poor fit] |
| O=C(O)c1ccc2c(=O)n3c(nc2c1)/C(=C/c1ccccc1OC(F)F)CC3 | inactive: -2.68% |  |
| Cc1ccc(Cn2nnc3c(=O)[nH]c(C4CCN(C(=O)Cc5cccs5)CC4)nc32)cc1 |  | inconclusive: 1.04 µM [inhibitor, full curve] |
| Cc1cc(C(=O)NNC(=O)c2ccc(C)s2)c(C)o1 | inactive: 48.9% |  |
| O=C(OCCN1C(=O)c2cccc3c(N4CCOCC4)ccc(c23)C1=O)c1cccc(Cl)c1 |  | inconclusive: 14.7 µM [inhibitor, single point] |
| Cc1cc(C)nc(N2CCCC(C(=O)NCC(c3ccccc3)c3ccccc3)C2)n1 (stereo not given) |  | inconclusive: 7.38 µM [inhibitor, partial curve, poor fit] |
| CCN(CC)C(=O)c1cn(C)c(=O)c2cc(OC)c(OC)cc12 |  | inconclusive: 3.7 µM [inhibitor, full curve, poor fit] |
| CC(=O)NCc1nc2ccccc2n1Cc1ccccc1C |  | inconclusive: 18.5 µM [inhibitor, single point] |
| NCCN1CCN(CCN)CC1 | inactive: 7.27% |  |
| O=C(CN1CCN(c2ccccc2F)CC1)N1N=CCC1c1ccccc1 (stereo not given) | inactive: 22.6% |  |
| COc1ccc(C(=O)NC(C)c2cnn(-c3ccccn3)c2C)o1 (stereo not given) |  | inconclusive: 16.5 µM [inhibitor, partial curve, poor fit] |
| O=C(OCc1ccc(F)cc1)c1cc(S(=O)(=O)N2CCCCC2)ccc1N1CCOCC1 |  | inconclusive: 5.22 µM [inhibitor, partial curve] |
| COc1ccc(C2(C)NC(=O)N(CC(=O)Nc3ccc4c(c3)CCC4)C2=O)cc1OC (stereo not given) |  | inconclusive: 13.1 µM [inhibitor, partial curve, poor fit] |
| S=c1[nH]c2ccc3ccccc3c2[nH]1 |  | inconclusive: 16.5 µM [inhibitor, single point] |
| CC1CCCN(C(=O)CN2C(=O)CSc3ccc(S(=O)(=O)N4CCOCC4)cc32)C1 (stereo not given) | inactive: 2.5% |  |
| Cc1cccc(C)c1NC(=O)CN1CCCCCC1 |  | inconclusive: 13.5 µM [inhibitor, single point] |
| COc1ccc(-c2oc3ncn4nc(Cc5ccccc5)nc4c3c2-c2ccc(OC)cc2)cc1 |  | inconclusive: 18.5 µM [inhibitor, single point] |
| CCn1cc(S(=O)(=O)c2ccc(C)cc2)[nH]c1=O |  | inconclusive: 6.57 µM [inhibitor, partial curve] |
| CCN(CC)S(=O)(=O)c1cccc(C(=O)OCc2cc(=O)n3nc(C)sc3n2)c1 |  | active: 5.22 µM |
| O=C(Nc1cccnc1)C1=NN(C2CCS(=O)(=O)C2)C(=O)CC1 (stereo not given) |  | inconclusive: 0.294 µM [inhibitor, full curve, poor fit] |

Record cards (already shown):
O=C(CN1CCN(c2ccccc2F)CC1)N1N=CCC1c1ccccc1 (stereo not given) reads activity change, negative = inhibition: inactive: 22.6%
COC(=O)[C@H](Cc1ccccc1)NC(=O)NCCc1ccccc1F reads activity change, negative = inhibition: inactive: 6.61%
